Test results published in publication PMC5222566, “The Ciliopathy-Associated Cep104 Protein Interacts with Tubulin and Nek1 Kinase” (Structure(London, England:1993), 2017).

Key:
[1] = molecular target: T1, GST-Cep104^746-875 (ZNF) (human) (UniProt O60308); assay: pull-down; competition: GST-Cep104^746-875 beads, Hek293 lysate with 3xFLAG-Nek1 mixed with increasing amounts of recombinant CP110^906-936; anti-FLAG western blot; only the target purified
T1 sequence: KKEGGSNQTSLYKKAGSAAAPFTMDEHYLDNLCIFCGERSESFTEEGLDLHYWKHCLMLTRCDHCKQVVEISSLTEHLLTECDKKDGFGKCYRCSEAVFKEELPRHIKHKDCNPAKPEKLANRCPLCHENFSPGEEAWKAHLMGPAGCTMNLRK

[2] = molecular target: T1, GST-Cep104^746-875 (ZNF) (human); assay: pull-down; 30 ug GST-Cep104^746-875 on Glutathione Sepharose 4B; cleared Hek293 lysates with 3xFLAG Nek1 constructs, 1 h 4°C; 50 mM Na-phosphate pH 7.5, 100 mM NaCl, 1 mM DTT, 0.1% NP-40; anti-FLAG western blot; only the target purified
[3] = molecular target: T2, Cep104 (yeast two-hybrid fusion) (human) (UniProt O60308); assay: two-hybrid; yeast MaV203, pDEST32 bait and pDEST22 prey; growth on SC -Ura, 3 days 30°C
T2 sequence: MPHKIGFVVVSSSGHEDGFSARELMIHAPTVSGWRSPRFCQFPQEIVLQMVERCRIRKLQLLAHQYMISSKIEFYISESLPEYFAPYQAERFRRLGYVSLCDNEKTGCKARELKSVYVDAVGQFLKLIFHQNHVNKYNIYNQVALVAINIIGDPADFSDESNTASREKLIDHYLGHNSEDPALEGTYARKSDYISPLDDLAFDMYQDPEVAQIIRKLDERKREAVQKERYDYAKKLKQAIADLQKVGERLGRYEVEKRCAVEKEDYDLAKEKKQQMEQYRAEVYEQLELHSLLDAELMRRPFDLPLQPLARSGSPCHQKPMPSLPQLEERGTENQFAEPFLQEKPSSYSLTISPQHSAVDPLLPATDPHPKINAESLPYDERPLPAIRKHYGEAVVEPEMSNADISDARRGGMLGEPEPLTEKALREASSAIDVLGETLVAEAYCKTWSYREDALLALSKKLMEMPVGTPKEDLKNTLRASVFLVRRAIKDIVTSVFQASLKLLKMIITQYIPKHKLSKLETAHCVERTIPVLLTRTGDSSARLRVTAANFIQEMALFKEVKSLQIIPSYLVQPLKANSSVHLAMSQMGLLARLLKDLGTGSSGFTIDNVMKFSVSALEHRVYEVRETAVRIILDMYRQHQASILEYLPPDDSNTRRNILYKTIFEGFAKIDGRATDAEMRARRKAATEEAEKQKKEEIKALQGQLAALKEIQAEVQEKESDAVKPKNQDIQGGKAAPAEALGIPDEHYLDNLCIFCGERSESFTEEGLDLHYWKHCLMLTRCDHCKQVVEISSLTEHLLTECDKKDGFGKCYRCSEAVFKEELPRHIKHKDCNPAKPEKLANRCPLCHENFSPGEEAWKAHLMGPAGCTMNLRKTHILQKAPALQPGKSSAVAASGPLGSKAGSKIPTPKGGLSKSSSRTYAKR

[4] = molecular target: T1, GST-Cep104^746-875 (ZNF) (human); assay: pull-down; in vitro: 30 ug GST-Cep104^746-875 on Glutathione Sepharose 4B; Nek1^451-677 (26 uM), CP110^906-936 (66 uM), D. rerio STIL^404-448 (127 uM) or binary combinations, 1 h 4°C; PBS, 0.1% IGEPAL CA-630, 1 mM DTT; Coomassie gel; both purified

## 3xFLAG-tagged human Nek1 (enzyme)
[1]
  binding: binds
[2]
  binding: binds

## 3xFLAG-tagged human Nek1 coiled-coil domain construct (domain or fragment)
[2]
  binding: binds

## Nek1 (yeast two-hybrid fusion) (human) (enzyme)
[3]
  binding: binds

## human Nek1^451-677 (domain or fragment)
[4]
  binding: binds

No constants are given. Whether binding was seen depends on the method and setting. A result given as binding can be weak or reduced; the word gives no strength. Where a sequence is shown, tags or fusion partners need not be part of it. For some assays here: In cells and extracts the contact can be indirect.
